Data: patent US9227923B2, “Pesticidal carboxamides” (Bayer Intellectual Property GmbH, priority 2009, dated 2016)
Some of these results come from one statement about several compounds together.

What was measured:
[1] = test system: Boophilus microplus; experiment: Boophilus microplus test (injection); assay type: in vivo; details: application rate of 20 μg/animal, after 7 days
Procedure: (§1) Solvent: dimethyl sulfoxide
Five adult engorged female ticks (Boophilus microplus) are injected with […] compound solution into the abdomen. Ticks are transferred into replica plates and incubated in a climate chamber for a period of time. Egg deposition of fertile eggs is monitored.
After 7 days mortality in % is determined. 100% means that all eggs are infertile; 0% means that all eggs are fertile. […]

[2] = test system: Ctenocephalides felis; assay type: in vivo; details: application rate of 100 ppm in cattle blood; after 2 days
Procedure: as §1
Approximately 20 adult unfed (Ctenocepahlides felis) are placed in flea chambers. […] The blood chamber is heated to 37° C. whereas the flea chamber is kept at room temperature.

[3] = test system: Musca domestica; details: application rate of 100 ppm; adults; after 2 days
Procedure: as §1
Prior to the assay, a piece of kitchen sponge is soaked with a mixture of sugar and compound solution and placed into a container. 10 adults (Musca domestica) are placed into the container and closed with a perforated lid. After 2 days mortality in % is determined 100% means that all the flies have been killed; 0% means that none of the flies have been killed.

[4] = test system: Lucilia cuprina 1st instar larvae; assay type: in vivo; details: application rate of 100 ppm; after 48 hrs
Procedure: species: Lucilia cuprina 1st instar larvae (age 24 hrs)
solvent: dimethyl sulfoxide
Serial dilutions are made to obtain the desired rates. Approximately 20 Lucilia cuprina 1st instar larvae are transferred into a test tube containing 1 cm^3 of minced horse meat and 0.5 ml aqueous dilution of test compound. After 48 hrs percentage of larval mortality are recorded. 100% efficacy=all larvae are killed, […].

CCc1cc(C(F)(C(F)(F)F)C(F)(F)F)cc(C)c1NC(=O)c1ccc(C(C)NC(=O)CC(F)(F)F)cc1 (stereo not shown) [Compound 9-6]
80%: activity (mortality in %) [3]
100%: activity (mortality in %; 100% means that all eggs are infertile) [1] | activity (mortality in %) [2] | activity (percentage of larval mortality) [4]

CCC(=O)NC1CCc2cc(C(=O)Nc3c(C)cc(C(F)(C(F)(F)F)C(F)(F)F)cc3CC)ccc21 (stereo not shown) [Compound 10-3]
100%: activity (mortality in %; 100% means that all eggs are infertile) [1] | activity (mortality in %) [2] | activity (mortality in %) [3] | activity (percentage of larval mortality) [4]

CCc1cc(C(F)(C(F)(F)F)C(F)(F)F)cc(C)c1NC(=O)c1ccc2c(c1)CCC2NC(=O)CC1CC1 (stereo not shown) [Compound 10-5]
100%: activity (mortality in %; 100% means that all eggs are infertile) [1] | activity (mortality in %) [2] | activity (mortality in %) [3] | activity (percentage of larval mortality) [4]

CCc1cc(C(F)(C(F)(F)F)C(F)(F)F)cc(C)c1NC(=O)c1ccc2c(c1)CCC2NC(=O)CC(F)(F)F (stereo not shown) [Compound 10-6]
100%: activity (mortality in %; 100% means that all eggs are infertile) [1] | activity (mortality in %) [2] | activity (mortality in %) [3] | activity (percentage of larval mortality) [4]
